The results in this text go back to article PMC10039067, “Temporal and spatial assembly of inner ear hair cell ankle link condensate through phase separation” (Nature Communications, 2023).

The chains behind the UniProt entries cited, without tags or fusion partners. Where a name states a change or a piece, a line headed by the entry shows the natural chain unless it says otherwise.
UniProt Q2QI47: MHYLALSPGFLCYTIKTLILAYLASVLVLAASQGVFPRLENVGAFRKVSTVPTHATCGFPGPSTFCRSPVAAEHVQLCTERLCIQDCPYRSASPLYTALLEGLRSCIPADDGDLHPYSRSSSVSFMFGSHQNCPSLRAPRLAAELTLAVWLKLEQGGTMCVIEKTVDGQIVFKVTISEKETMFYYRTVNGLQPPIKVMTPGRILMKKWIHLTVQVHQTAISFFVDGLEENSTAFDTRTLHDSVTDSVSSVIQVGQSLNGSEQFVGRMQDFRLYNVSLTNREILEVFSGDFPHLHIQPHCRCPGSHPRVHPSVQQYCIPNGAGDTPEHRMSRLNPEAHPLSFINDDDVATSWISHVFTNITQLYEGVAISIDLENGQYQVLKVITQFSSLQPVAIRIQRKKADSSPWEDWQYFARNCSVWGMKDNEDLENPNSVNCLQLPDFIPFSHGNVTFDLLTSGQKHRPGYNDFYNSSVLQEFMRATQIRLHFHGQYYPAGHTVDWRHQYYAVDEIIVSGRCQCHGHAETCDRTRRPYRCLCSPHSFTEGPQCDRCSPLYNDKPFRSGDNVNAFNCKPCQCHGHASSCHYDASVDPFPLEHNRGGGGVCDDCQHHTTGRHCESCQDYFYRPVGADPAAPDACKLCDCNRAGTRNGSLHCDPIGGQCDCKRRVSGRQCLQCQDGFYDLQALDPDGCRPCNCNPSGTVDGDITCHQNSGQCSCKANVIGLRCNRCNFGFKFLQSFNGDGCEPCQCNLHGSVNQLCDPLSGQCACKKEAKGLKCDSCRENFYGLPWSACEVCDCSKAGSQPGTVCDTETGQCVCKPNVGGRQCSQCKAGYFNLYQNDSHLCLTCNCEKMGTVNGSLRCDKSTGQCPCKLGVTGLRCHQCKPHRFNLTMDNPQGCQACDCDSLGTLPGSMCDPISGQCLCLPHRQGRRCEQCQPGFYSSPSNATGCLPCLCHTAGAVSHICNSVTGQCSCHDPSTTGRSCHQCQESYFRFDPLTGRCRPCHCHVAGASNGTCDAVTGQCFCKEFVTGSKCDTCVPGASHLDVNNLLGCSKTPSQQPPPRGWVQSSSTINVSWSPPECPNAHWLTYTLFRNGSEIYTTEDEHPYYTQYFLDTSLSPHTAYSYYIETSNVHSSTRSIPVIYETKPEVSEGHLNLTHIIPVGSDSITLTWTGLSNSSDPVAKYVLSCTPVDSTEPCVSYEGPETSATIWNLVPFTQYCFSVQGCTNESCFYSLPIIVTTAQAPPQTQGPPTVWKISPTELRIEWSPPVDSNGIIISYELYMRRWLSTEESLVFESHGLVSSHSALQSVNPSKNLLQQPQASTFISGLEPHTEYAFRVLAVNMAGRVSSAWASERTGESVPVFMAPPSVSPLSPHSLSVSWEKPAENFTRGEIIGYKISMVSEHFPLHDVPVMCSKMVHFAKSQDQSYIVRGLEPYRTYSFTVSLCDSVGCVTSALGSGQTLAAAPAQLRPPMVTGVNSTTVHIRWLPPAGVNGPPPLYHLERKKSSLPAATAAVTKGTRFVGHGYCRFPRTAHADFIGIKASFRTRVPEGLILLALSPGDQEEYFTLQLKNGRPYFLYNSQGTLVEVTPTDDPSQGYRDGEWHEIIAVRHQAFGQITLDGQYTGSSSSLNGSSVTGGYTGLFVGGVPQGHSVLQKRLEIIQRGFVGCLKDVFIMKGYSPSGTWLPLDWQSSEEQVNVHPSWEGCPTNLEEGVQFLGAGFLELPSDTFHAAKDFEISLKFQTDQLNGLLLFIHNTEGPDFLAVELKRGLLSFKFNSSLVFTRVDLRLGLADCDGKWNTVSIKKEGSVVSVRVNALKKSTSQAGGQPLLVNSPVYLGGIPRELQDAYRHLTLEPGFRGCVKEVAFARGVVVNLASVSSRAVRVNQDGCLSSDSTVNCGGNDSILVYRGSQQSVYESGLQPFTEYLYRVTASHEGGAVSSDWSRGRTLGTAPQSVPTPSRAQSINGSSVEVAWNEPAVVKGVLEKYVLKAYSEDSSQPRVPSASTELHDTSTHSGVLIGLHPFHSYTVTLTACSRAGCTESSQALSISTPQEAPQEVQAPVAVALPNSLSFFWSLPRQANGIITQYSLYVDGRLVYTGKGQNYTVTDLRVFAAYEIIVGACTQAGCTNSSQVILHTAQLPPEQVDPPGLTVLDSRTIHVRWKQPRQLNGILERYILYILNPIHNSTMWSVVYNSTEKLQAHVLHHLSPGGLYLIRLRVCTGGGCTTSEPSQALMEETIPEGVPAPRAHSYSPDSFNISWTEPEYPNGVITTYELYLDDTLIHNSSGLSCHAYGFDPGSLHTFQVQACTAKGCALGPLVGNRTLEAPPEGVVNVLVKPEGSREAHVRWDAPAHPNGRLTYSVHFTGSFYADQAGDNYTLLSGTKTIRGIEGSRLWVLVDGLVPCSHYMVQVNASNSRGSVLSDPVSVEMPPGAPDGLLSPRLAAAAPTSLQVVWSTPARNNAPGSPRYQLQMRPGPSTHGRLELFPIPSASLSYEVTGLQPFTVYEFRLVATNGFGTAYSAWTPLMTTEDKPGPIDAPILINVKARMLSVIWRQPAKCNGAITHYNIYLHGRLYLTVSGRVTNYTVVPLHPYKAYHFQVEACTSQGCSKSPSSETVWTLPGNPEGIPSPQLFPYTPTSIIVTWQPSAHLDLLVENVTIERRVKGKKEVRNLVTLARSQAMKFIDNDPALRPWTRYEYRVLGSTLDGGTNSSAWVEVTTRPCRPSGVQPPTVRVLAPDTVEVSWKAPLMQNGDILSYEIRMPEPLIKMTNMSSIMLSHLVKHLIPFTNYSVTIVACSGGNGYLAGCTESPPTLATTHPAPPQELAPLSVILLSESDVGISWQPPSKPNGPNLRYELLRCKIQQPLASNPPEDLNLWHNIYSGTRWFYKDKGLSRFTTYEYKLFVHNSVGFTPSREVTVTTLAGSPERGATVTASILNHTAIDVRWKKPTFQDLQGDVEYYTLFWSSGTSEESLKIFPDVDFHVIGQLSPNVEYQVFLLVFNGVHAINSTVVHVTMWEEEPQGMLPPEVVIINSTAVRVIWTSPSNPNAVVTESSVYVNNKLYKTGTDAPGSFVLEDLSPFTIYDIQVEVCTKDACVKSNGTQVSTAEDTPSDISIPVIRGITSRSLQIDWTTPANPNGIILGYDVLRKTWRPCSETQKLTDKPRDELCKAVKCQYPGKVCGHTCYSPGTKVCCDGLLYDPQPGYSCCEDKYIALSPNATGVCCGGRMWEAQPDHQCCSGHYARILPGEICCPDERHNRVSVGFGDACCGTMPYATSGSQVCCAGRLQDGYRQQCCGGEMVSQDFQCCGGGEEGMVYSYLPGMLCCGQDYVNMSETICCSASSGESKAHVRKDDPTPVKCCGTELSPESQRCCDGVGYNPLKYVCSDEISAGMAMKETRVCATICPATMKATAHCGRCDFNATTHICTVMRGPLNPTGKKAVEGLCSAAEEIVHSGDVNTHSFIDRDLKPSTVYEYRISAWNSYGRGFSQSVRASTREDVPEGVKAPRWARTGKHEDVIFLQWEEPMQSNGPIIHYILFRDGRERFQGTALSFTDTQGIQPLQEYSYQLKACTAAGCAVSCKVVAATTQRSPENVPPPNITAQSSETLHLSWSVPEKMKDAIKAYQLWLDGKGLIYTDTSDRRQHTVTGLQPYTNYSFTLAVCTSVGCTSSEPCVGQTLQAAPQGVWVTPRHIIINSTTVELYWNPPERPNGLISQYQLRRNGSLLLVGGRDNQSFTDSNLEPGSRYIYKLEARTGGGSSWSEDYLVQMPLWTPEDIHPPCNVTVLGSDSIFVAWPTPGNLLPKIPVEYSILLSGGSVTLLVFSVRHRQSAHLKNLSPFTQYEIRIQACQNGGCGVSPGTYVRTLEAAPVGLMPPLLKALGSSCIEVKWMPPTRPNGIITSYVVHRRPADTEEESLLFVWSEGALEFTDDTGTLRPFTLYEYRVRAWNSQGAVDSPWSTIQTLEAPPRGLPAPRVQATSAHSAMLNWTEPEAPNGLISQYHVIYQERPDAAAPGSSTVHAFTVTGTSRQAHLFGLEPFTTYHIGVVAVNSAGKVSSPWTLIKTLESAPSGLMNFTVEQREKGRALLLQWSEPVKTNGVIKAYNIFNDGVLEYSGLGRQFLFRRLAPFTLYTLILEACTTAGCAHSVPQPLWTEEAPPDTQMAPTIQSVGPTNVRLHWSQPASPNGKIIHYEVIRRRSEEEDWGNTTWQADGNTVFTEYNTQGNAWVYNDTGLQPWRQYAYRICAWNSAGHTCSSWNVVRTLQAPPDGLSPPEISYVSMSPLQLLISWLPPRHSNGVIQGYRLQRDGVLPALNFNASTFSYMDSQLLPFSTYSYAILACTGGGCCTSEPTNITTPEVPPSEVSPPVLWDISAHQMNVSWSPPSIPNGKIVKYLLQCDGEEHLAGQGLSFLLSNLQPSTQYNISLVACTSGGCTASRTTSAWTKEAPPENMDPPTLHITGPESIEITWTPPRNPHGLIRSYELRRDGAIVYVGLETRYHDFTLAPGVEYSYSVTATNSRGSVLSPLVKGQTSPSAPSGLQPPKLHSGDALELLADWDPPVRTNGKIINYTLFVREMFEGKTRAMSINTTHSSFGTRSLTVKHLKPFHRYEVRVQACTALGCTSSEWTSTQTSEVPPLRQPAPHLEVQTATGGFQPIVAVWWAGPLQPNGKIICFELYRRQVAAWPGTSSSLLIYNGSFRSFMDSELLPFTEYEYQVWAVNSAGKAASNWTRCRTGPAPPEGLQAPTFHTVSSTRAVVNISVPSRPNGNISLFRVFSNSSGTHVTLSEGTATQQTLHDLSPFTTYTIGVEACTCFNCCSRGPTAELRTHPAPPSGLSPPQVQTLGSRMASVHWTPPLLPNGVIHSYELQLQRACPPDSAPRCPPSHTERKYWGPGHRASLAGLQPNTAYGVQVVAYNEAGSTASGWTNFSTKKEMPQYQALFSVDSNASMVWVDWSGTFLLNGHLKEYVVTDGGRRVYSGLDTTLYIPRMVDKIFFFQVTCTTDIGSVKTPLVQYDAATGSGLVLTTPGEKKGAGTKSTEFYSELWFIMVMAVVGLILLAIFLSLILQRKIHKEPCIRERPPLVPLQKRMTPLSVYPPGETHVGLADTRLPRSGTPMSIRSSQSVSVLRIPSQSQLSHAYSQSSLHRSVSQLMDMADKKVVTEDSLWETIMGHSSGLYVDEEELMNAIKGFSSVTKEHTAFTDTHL

These are yes or no findings as the source states them, for the method shown.

One assay has as its target T1, WHRN NPDZ12 (UniProt Q9P202).
T1 sequence: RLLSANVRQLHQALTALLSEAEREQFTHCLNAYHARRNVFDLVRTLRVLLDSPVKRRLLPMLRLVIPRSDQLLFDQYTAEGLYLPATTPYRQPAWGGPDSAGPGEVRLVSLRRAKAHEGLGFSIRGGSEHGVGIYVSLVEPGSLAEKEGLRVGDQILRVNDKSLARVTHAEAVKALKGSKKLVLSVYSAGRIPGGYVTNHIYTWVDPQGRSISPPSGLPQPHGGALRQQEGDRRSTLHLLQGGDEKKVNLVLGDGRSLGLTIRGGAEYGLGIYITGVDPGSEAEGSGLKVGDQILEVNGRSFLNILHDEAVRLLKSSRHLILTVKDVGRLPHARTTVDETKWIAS
In words: ITC; MicroCal iTC200, 25 °C; 50 mM tris pH 7.5-8.0, 300 mM NaCl, 1 mM DTT, 1 mM EDTA; cell 20–50 µM, syringe 400–800 µM; one-site binding model; both purified. (Isothermal titration calorimetry measures the heat released or taken up as one component is titrated into another.)

The next assay has as its target T2, PDZD7 PDZ12 (UniProt E9Q9W7).
T2 sequence: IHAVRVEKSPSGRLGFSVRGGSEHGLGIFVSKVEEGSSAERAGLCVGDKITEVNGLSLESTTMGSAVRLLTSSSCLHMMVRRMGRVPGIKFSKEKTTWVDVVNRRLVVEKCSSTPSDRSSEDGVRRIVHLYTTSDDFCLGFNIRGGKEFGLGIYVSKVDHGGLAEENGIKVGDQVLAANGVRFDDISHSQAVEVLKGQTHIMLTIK
Described as above.

In the case of “USH2A-CT △PBM (from UniProt Q2QI47) (domain or fragment)”, in the assay with WHRN NPDZ12, the binding entry is “no binding (tested: cell 20–50 µM, syringe 400–800 µM)”.

As to “USH2A-CT(S) △PBM (from UniProt Q2QI47) (domain or fragment)”, the binding result with PDZD7 PDZ12 is on record as “no binding (tested: cell 20–50 µM, syringe 400–800 µM)”.
